{
  "source": "patent US10202385B2",
  "about": "“Use of substituted 2,3-dihydroimidazo[1,2-C]quinazolines” (BAYER INTELLECTUAL PROPERTY GMBH, priority 2011, dated 2019)",
  "key": {"[1]": {"tested_on": "MDA-MB-468 tumor cells", "test": "Tumor cell proliferation assay in MDA-MB-468 cells", "assay_type": "cell-based", "conditions": "MDA-MB468 cells, mTORC1 inhibition by rapamycin combined with Compound A", "experimental": "In accordance with the invention, the compound were assessed in a cell-based assay that measures the capacity of the compounds to inhibit tumor cell proliferation following a 72-hour drug exposure. Cell viability was conducted by Invitrogen (breast Oncopanel, Invitrogen, USA), or was determined using CellTiter-Glo® Luminescent Cell Viability Assay (Promega) as follows. Cells were plated at 300-5000 cells/well depending on the cell lines or microtiter plates (96- or 384-well) in 100 μL growth medium in 96-well and 20 μL growth medium in 384-well microtiterplate. For each cell line assayed, cells were plated onto a separate plate for determination of luminescence at t=0 hour and t=72 hour time points. Following overnight incubation at 37° C., luminescence values for the t=0 samples were determined. […] Luminescence values for the t=72 hour samples were determined. For data analysis, briefly, t=0 values were subtracted from those determined for the t=72 hour time points, for both the treated and untreated samples. Percent differences in luminescence between drug-treated and control values were used to determine the percent inhibition of growth.\nThe combination effects of PI3K inhibitors and other agent were evaluated using combination index isobologram analysis (Chou et al. Pharmacology Reviews 2006). […]"}, "[2]": {"tested_on": "MDA-MB-468 tumor cells", "test": "Apoptosis induction (PARP cleavage) in MDA-MB-468 cells", "assay_type": "cell-based", "conditions": "MDA-MB468 cells, mTORC1 inhibition by rapamycin combined with Compound A", "experimental": "Tumor cells were seeded in 384-well plates at a concentration of 1000-2500 cells/well/25 μL depending on cell lines. After overnight incubation, cells were treated with compounds (5 μL). Then, Caspase 3/7 activities were determined at 24 to 48 hours post-treatment using Caspase-Glo3/7 assay kits (Promega Cat # G8212).\nThe cellular expression of the mTORC2 component Rictor was assessed by western blot analysis (A). Induction of PARP cleavage by compound A treatment in combination with inhibition of mTORC1 or mTORC2 (B). shControl and shRictor MDA-MB468 cells were treated with indicated agents for 48 hours, and cleavage of PARP was analyzed. GAPDH was used as an internal protein control."}},
  "note": "For at least one compound, name, drawing or mass did not settle the structure.",
  "data": [
    {"smiles": "CO[C@H]1C[C@@H]2CC[C@@H](C)[C@@](O)(O2)C(=O)C(=O)N2CCCC[C@H]2C(=O)O[C@H]([C@H](C)C[C@@H]2CC[C@@H](O)[C@H](OC)C2)CC(=O)[C@H](C)/C=C(\\C)[C@@H](O)[C@@H](OC)C(=O)[C@H](C)C[C@H](C)/C=C/C=C/C=C/1C", "note": "[rapamycin, reference compound]", "values": [
      {"measurement": "sensitization to Compound A, inhibition of proliferation", "setting": "[1]", "result": "sensitizes"},
      {"measurement": "sensitization to Compound A, induction of apoptosis", "setting": "[2]", "result": "sensitizes"}
    ]}
  ]
}
